The source of these data is PMC8760305.

By UniProt entry, the sequences of proteins in these tests, tags left out.
UniProt Q99558: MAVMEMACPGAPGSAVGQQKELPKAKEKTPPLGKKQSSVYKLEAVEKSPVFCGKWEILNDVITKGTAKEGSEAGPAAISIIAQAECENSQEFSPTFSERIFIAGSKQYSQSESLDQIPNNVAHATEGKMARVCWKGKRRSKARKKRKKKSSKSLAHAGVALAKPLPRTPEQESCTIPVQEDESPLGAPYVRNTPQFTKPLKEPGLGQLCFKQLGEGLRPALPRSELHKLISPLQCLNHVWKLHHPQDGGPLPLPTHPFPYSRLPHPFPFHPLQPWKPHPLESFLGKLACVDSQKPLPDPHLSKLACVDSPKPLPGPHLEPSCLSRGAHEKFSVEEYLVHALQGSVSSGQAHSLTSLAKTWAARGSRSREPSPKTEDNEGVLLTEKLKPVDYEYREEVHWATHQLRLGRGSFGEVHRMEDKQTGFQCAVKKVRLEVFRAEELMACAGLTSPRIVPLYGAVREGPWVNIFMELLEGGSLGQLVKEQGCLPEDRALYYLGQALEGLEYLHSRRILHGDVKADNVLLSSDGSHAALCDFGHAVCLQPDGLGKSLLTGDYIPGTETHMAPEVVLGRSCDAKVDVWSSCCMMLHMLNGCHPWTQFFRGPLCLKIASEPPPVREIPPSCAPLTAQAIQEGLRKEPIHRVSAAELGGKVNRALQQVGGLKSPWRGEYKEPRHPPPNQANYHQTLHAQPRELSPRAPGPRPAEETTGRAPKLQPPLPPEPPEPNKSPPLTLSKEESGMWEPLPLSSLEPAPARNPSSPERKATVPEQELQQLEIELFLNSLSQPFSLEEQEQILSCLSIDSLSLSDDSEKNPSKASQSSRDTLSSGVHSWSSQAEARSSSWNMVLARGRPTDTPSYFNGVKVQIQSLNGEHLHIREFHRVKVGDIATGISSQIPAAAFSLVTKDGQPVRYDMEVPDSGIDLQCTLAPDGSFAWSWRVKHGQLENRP

Results are given in words; binding and its absence hold for the method and conditions named. In cells and extracts the contact can be indirect. Some entries that bind do so weakly or less than the wild type.

Assay [1] has as its target T1, NIMA-related kinase 2 (NEK2), endogenous (human (endogenous; cells of the co-IP not named, all cells of the paper are human)) (UniProt P51955).
T1 sequence: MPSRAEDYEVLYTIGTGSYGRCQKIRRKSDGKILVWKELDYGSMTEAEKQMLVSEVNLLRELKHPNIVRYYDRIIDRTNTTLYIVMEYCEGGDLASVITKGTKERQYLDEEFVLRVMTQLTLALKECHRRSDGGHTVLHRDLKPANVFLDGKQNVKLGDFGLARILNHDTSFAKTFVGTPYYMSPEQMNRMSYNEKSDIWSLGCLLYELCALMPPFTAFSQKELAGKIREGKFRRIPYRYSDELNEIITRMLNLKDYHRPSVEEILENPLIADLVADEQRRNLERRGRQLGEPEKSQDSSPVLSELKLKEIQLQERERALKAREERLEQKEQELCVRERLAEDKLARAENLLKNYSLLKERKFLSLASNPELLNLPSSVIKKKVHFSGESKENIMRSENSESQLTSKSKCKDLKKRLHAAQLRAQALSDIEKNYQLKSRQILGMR
Description: co-IP; NEK2 antibody or NIK antibody (1:50) added to cell lysates overnight at 4 °C, protein A Dynabeads 2 h, washed three times with PBST, western blot; nonspecific IgG as control. On the technique in general: A western blot detects proteins with antibodies after separation by electrophoresis.

Assay [2] has as its target GST-tagged NIK (NF-κB-inducing kinase) (UniProt Q99558). Nature of the assay: pull-down; GST-tagged NIK expressed in HEK293T cells with or without NEK2 overexpression; cell lysates incubated with GST beads for 1 h, washed with lysate buffer, western blot.
For assay [3], the target named is NF-κB-inducing kinase (NIK), endogenous (human (endogenous; cells of the co-IP not named, all cells of the paper are human)) (UniProt Q99558). Nature of the assay: co-IP; NEK2 antibody or NIK antibody (1:50) added to cell lysates overnight at 4 °C, protein A Dynabeads 2 h, washed three times with PBST, western blot; nonspecific IgG as control.

In the case of “NF-κB-inducing kinase (NIK), endogenous (from UniProt Q99558 1-947)”, the binding entry in assay [1] is on record as “binds”.

B1: NIMA-related kinase 2 (NEK2), exogenous, overexpressed in HEK293T (protein, UniProt P51955 1-445)
chain: T1 sequence
For the molecule B1, in assay [2], the binding result is “binds”.

B2: NIMA-related kinase 2 (NEK2), endogenous (protein, UniProt P51955 1-445)
chain: T1 sequence
On to B2, for which, in assay [3], the binding entry is reported as “binds”.
